# Measured values taken from publication PMC12523879.
# Amino acid sequences for entries named in this document (tags omitted). Residues count along the entry.
# UniProt P59665, 65-94: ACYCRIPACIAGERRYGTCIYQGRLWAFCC
# The exact form of at least one protein or probe is not confirmed. Results from cells or extracts need not show a direct contact. A weaker result is weaker than the reference pair of the same experiment. At least one verdict rests on a figure or table, not on a statement of the authors. For some assays here: Tags and fusion partners may be left off the protein sequences shown.
# How the values were obtained:
# [1] = molecular target: Neutrophil defensin 1 (Homo sapiens) (UniProt P59665); assay: pull-down with LC-MS/MS; settings: yeast RNA masking, 5' thiol C6 (5ThioMC6-D), Lysate in 0.1% DDM with masking yeast RNA, 30 min with aptamer-coated gold magnetic particles, five phosphate buffer washes, elution in 8 M urea, protein in an extract, label: immobilized on gold-coated magnetic particles, single-stranded DNA
# [2] = molecular target: T1, Peroxiredoxin-2 (Homo sapiens) (UniProt P32119); assay: pull-down with LC-MS/MS; settings: CTC lysate, yeast RNA masking, 5' thiol C6 (5ThioMC6-D), Lysate in 0.1% DDM with masking yeast RNA, 30 min with aptamer-coated gold magnetic particles, five phosphate buffer washes, elution in 8 M urea, protein in an extract, label: immobilized on gold-coated magnetic particles, single-stranded DNA
# T1 sequence (looked up, limits assumed): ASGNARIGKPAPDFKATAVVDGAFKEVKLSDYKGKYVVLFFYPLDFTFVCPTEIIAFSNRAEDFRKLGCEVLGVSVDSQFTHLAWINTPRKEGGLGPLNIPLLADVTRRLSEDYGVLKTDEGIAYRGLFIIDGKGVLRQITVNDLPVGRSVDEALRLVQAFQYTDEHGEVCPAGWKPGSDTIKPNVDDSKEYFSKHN
Sequence,"binding result ([1]; CTC lysate, protein predominant in LC-17 samples over controls)",binding result ([2]; protein predominant in LC-17 samples over controls),binding result ([1]; CTC lysate),binding result ([1]; lung cancer cell culture lysate),binding result [2]
CTCCTCTGACTGTAACCACGAGAGAGAGAGAGAGAGAGAGAGAGAGAGAGAGAGAGAGAG [AG-repeat control (thiolated primer + AG repeats)],binds more weakly,binds more weakly,,,
CTCCTCTGACTGTAACCACGCTTTTGTCTTTAGCCGAATTTTACTAAGCCGGGCTGATCAGCATAGGTAGTCCAGAAGCC [LC-17],,,binds,binds,binds
